Laboratory results: the supplement of paper PMC10849652
The list shows a part of the results.

Chains of the proteins cited; added tags and fusions are not shown. Lines headed by an entry give the natural chain unless they say otherwise; changes in a name come on top.
UniProt O75083: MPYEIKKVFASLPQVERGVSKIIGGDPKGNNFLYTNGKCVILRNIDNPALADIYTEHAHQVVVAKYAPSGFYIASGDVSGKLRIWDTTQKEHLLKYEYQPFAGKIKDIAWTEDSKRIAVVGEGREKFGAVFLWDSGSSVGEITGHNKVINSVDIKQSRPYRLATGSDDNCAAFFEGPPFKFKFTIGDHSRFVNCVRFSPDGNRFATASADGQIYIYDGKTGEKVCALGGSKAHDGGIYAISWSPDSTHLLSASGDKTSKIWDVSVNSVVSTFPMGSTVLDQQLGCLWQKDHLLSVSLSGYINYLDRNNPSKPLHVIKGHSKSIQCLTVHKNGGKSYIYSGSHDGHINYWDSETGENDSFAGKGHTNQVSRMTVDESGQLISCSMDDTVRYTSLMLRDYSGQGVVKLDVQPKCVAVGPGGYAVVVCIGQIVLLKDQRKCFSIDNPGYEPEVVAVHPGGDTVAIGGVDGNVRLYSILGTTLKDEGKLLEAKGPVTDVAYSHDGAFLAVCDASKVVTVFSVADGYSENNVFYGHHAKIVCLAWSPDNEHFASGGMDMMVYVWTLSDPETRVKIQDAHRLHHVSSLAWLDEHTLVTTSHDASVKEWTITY
UniProt P21796, whole entry, looked up: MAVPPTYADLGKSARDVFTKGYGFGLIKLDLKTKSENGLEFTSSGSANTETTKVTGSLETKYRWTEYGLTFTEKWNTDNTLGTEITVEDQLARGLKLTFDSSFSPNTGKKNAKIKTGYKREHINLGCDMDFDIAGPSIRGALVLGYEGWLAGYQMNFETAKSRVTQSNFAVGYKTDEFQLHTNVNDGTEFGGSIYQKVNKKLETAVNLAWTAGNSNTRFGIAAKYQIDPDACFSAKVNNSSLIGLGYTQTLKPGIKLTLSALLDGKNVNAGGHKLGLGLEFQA
UniProt A6NGB9: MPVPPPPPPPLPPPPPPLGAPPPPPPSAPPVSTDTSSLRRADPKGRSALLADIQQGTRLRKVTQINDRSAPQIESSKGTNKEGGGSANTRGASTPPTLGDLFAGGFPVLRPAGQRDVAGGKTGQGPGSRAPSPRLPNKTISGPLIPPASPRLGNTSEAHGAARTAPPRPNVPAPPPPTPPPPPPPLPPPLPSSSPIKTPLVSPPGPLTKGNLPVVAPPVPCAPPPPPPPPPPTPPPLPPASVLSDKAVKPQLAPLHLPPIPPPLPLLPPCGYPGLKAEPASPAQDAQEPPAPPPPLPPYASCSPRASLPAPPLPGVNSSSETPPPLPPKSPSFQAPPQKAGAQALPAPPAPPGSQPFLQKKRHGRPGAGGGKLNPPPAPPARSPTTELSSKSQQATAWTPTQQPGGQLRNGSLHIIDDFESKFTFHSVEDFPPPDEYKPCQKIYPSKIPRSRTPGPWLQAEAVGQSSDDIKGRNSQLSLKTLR
UniProt Q9H6R7: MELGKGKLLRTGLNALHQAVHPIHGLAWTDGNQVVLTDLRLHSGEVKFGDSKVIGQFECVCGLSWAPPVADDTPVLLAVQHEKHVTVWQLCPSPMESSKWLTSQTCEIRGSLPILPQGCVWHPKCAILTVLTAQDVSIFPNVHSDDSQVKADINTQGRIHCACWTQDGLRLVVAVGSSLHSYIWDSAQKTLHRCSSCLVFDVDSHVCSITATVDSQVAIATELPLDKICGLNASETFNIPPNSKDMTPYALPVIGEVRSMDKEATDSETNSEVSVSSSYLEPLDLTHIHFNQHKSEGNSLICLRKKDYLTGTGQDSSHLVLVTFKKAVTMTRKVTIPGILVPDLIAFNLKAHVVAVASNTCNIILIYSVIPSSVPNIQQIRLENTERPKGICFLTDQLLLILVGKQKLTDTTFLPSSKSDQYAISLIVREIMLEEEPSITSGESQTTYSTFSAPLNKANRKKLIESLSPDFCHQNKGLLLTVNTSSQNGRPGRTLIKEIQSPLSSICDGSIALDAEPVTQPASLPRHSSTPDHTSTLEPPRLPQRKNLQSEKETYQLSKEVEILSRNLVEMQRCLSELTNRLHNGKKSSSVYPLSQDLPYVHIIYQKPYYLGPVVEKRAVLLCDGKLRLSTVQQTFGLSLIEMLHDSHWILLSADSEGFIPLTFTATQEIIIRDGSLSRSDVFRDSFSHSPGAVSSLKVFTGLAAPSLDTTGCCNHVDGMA
UniProt Q9BRG1: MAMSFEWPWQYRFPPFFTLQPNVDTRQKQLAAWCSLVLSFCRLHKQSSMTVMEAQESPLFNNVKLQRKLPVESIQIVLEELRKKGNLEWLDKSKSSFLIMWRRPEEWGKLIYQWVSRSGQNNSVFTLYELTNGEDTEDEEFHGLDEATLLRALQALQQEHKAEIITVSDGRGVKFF
UniProt Q9H9C1: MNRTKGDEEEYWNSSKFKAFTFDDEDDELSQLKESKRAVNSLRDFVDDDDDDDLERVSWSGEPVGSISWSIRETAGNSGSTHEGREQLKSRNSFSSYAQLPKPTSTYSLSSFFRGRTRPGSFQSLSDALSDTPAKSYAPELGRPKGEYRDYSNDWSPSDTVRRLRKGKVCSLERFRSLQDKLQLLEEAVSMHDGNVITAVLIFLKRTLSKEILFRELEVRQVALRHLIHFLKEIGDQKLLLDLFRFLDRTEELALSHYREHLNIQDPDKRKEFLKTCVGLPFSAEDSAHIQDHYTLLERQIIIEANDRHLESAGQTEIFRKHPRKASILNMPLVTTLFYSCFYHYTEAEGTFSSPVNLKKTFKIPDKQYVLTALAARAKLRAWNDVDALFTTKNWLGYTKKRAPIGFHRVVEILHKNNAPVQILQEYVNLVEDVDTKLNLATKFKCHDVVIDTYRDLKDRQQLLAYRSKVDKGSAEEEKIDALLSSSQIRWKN
UniProt Q9Y2I8: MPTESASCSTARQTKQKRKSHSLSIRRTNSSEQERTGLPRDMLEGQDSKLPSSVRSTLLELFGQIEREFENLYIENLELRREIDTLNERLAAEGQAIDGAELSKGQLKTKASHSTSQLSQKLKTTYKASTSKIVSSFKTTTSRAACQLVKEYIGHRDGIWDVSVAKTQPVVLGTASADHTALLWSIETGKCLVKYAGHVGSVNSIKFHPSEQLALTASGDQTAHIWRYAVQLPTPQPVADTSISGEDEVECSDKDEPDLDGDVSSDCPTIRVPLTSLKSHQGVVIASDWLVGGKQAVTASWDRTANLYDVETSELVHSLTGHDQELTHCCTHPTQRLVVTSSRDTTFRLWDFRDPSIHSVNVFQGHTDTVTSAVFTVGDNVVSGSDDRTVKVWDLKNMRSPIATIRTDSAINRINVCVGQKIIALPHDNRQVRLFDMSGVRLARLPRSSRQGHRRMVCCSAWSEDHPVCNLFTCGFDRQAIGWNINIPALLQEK
UniProt P09327: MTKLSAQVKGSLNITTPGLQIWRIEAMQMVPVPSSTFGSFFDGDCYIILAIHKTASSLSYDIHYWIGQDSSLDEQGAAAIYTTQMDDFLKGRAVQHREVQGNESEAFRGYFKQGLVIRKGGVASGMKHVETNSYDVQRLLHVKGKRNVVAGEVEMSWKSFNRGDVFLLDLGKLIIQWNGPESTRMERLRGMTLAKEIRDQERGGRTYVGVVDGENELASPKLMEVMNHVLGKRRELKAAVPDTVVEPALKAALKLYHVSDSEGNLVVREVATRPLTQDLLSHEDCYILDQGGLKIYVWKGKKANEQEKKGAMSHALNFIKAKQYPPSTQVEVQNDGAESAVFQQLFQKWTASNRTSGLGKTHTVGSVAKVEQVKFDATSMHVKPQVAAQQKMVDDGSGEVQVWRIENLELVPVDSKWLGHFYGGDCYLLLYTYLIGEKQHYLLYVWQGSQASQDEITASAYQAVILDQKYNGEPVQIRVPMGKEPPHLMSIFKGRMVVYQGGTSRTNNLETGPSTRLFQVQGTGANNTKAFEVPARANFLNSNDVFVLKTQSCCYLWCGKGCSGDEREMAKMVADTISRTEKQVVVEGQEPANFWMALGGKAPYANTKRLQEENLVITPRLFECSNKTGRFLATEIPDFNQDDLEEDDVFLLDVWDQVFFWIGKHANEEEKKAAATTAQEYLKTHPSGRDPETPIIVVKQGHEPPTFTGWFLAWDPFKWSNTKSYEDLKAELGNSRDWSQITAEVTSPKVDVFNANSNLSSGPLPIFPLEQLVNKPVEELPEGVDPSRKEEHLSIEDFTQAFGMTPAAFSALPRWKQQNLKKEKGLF
UniProt Q99986: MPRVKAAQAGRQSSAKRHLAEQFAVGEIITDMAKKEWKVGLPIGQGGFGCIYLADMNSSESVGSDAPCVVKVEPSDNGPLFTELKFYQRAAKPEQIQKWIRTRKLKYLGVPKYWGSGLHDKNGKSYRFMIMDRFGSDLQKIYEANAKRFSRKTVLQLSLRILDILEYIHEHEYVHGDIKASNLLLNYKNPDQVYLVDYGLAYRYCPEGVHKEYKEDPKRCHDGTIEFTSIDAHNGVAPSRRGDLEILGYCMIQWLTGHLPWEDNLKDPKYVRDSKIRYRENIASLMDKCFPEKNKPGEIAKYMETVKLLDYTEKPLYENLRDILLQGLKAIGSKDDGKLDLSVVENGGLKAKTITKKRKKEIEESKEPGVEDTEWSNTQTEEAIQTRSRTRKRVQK
UniProt Q92558: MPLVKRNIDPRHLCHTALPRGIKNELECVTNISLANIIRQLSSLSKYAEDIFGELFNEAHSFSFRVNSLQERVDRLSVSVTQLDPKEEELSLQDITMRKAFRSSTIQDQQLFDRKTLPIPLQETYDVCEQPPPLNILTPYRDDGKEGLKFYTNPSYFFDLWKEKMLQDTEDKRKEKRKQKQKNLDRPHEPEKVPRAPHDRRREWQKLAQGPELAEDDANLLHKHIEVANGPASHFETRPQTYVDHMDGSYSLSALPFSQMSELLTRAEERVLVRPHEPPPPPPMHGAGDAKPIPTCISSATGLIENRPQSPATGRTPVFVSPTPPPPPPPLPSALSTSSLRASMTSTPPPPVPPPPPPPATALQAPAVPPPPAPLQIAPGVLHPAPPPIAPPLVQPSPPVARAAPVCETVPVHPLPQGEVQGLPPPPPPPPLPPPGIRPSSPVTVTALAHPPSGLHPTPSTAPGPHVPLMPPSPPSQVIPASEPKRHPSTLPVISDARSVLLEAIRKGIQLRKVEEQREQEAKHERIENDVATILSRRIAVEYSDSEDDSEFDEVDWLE
UniProt P04004: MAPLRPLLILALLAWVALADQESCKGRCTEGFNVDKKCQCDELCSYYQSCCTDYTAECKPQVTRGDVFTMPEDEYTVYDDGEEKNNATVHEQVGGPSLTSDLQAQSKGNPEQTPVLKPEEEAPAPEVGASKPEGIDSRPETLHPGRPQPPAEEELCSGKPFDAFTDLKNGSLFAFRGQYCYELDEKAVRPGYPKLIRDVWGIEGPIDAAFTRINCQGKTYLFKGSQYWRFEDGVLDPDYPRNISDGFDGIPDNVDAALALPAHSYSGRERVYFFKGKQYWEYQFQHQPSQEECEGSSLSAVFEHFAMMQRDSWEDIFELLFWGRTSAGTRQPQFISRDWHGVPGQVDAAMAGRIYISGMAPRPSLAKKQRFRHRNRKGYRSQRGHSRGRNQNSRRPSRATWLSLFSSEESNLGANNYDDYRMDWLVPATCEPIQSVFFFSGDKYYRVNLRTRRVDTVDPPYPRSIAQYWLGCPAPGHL
UniProt Q6RFH5: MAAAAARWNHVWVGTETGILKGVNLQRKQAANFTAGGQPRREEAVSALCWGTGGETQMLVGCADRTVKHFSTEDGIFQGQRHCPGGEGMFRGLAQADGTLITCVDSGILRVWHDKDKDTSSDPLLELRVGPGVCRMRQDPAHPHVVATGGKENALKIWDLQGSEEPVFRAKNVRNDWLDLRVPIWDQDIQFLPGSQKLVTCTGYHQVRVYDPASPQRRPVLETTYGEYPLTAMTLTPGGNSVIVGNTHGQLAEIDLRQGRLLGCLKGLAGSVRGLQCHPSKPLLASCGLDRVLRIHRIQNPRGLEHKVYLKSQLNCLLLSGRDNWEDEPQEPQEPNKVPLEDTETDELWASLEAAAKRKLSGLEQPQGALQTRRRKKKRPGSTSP
UniProt Q9HAD4: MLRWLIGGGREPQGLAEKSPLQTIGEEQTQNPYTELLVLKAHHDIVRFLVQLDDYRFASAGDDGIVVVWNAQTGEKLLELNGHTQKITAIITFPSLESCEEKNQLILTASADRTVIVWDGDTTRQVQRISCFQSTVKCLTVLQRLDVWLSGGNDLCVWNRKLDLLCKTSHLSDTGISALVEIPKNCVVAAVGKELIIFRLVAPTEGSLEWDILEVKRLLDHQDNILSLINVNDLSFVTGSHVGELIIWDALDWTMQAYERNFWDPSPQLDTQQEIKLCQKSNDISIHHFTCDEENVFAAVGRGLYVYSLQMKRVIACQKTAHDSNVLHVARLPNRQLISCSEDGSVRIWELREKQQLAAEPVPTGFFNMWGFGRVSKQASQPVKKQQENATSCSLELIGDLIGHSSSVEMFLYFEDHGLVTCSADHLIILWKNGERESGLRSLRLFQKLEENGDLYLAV

Assays:
Experiment in all cases: log2 fold change, soluble protein after heating vs DMSO (PISA); higher = thermal stabilisation; K562 cells, 10 uM, 30 min; active = over 0.2 and 3.5 SD of the protein, either way, in both replicates (recomputed)
[1] = compound: C1=CC=C(C=C1)[C@H](COC2=CC3=C(C=C2)NC(=O)N3)NC(=O)C4=CC=CN(C4=O)CC5=CC(=C(C=C5)F)F
How it was run: (§1)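 Quantification of soluble protein used TMTpro 16plex LC-MS/MS, with channel sums equalised. Samples were the supernatant after 21,000xg for 90 min of pooled aliquots from K562 cells (2×10^6 cells/mL) treated with 10 μM compound for 30 min, heated for 3 min over 48°C-58°C, and extracted in PBS with 0.5% NP-40 at 4°C. Values, from duplicates, describe thermal stability against control samples on a log2 fold-change scale.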

[2] = compound: CC1=C(SC2=C1C(=N[C@H](C3=NN=C(N32)C)CC(=O)N)C4=CC=C(C=C4)Cl)C
How it was run: as §1

[3] = compound: CC1=C2C(=CC=C1)N=C(N(C2=O)C3=CC=CC=C3C)CN4C=NC5=C(N=CN=C54)N
How it was run: as §1

[4] = compound: Cc1sc2c(c1C)C(c1ccc(Cl)cc1)=N[C@@H](CC(=O)OC(C)(C)C)c1nnc(C)n1-2
How it was run: as §1

[5] = compound: c1ccc([C@@H]2C[C@H]2NC2CCNCC2)cc1
How it was run: as §1

Measured: log2 fold change

VKORC1 (UniProt Q9BQB6)
inactive: [1] -0.058 | [2] 0.132 | [3] 0.083 | [4] -0.183 | [5] -0.012

WDR18 (UniProt Q9BV38)
inactive: [1] 0 | [2] 0.011 | [3] -0.019 | [4] -0.037 | [5] 0.019

VCX3B (UniProt Q9H321)
inactive: [1] 0.001 | [2] -0.007 | [3] 0.023 | [4] -0.014 | [5] 0.015

WDR1 (UniProt O75083)
inactive: [1] -0.006 | [2] 0.063 | [3] 0.067 | [4] -0.015 | [5] -0.047

VDAC1 (UniProt P21796)
inactive: [1] 0.047 | [2] 0.008 | [3] -0.024 | [4] -0.007 | [5] 0.026

WIPF3 (UniProt A6NGB9)
inactive: [1] 0.02 | [2] 0.049 | [3] -0.144 | [4] -0.04 | [5] 0.082

WDR75 (UniProt Q8IWA0)
inactive: [1] -0.031 | [2] -0.24 | [3] 0.002 | [4] 0.304 | [5] -0.089

WDCP (UniProt Q9H6R7)
inactive: [1] 0.013 | [2] 0 | [3] -0.015 | [4] 0.039 | [5] 0.145

VPS25 (UniProt Q9BRG1)
inactive: [1] -0.012 | [2] 0.137 | [3] 0.07 | [4] -0.104 | [5] -0.031

WASHC2C, A0A096LPC5
inactive: [1] 0.015 | [2] 0.012 | [3] 0.008 | [4] 0.027 | [5] 0.001

WDR3 (UniProt Q9UNX4)
inactive: [1] -0.02 | [2] -0.238 | [3] -0.112 | [4] 0.177 | [5] 0.023

WDR5 (UniProt P61964)
inactive: [1] 0.04 | [2] -0.121 | [3] -0.129 | [4] 0.003 | [5] 0.034

VMP1 (UniProt Q96GC9)
inactive: [1] 0.038 | [2] 0.014 | [3] 0.014 | [4] 0.013 | [5] 0.088

VIPAS39 (UniProt Q9H9C1)
inactive: [1] -0.111 | [2] -0.188 | [3] 0.068 | [4] 0.044 | [5] -0.037

WDR37 isoform 2 (UniProt Q9Y2I8)
inactive: [1] 0.039 | [2] -0.06 | [3] 0.062 | [4] 0.079 | [5] 0.054

WDR11 (UniProt Q9BZH6)
inactive: [1] -0.076 | [2] 0.067 | [3] 0.111 | [4] 0.05 | [5] 0.023

WARS1 (UniProt G3V5U1)
inactive: [1] 0.193

VIL1 (UniProt P09327)
inactive: [1] 0.046

VRK1 (UniProt Q99986)
inactive: [1] -0.13 | [2] 0.02 | [3] 0.178 | [4] -0.019 | [5] -0.136

WARS1 (UniProt G3V3P2)
inactive: [1] 0.095

WASF1 (UniProt Q92558)
inactive: [1] -0.018 | [2] -0.065 | [3] 0.006 | [4] -0.009 | [5] 0.061

WIZ (UniProt O95785)
inactive: [1] 0 | [2] -0.003 | [3] 0.06 | [4] 0.038 | [5] 0.023

VTN (UniProt P04004)
inactive: [1] -0.1 | [2] 0.051 | [3] -0.03 | [4] 0.121 | [5] -0.009

VPS29 isoform 2 (UniProt Q9UBQ0)
inactive: [1] -0.019 | [2] -0.005 | [3] 0.051 | [4] 0 | [5] 0.062

2 records picked at random from the list so far:
VKORC1 (UniProt Q9BQB6)
inactive: [1] -0.058 | [2] 0.132 | [3] 0.083 | [4] -0.183 | [5] -0.012

WIPF3 (UniProt A6NGB9)
inactive: [1] 0.02 | [2] 0.049 | [3] -0.144 | [4] -0.04 | [5] 0.082

More entries.

WDR74 (UniProt Q6RFH5)
inactive: [1] 0.028 | [2] -0.162 | [3] -0.22 | [4] 0.108 | [5] 0.016

WDR41 (UniProt Q9HAD4)
inactive: [1] -0.045 | [2] -0.08 | [3] -0.033 | [4] -0.03 | [5] 0.055

VWA8 (UniProt A3KMH1)
inactive: [1] -0.03 | [2] 0.023 | [3] 0.091 | [4] -0.044 | [5] -0.052
